Assay results: patent US20110237560A1, “MODULATING AND/OR DETECTING ACTIVATION INDUCED DEAMINASE AND METHODS OF USE THEREOF” (priority 2010, published 2011)
Results are given in words; binding and its absence hold for the method and conditions named. In cells and extracts the contact can be indirect. Some entries that bind do so weakly or less than the wild type.

The chains behind the UniProt entries cited, without tags or fusion partners. Where a name states a change or a piece, a line headed by the entry shows the natural chain unless it says otherwise.
UniProt Q9UNE7: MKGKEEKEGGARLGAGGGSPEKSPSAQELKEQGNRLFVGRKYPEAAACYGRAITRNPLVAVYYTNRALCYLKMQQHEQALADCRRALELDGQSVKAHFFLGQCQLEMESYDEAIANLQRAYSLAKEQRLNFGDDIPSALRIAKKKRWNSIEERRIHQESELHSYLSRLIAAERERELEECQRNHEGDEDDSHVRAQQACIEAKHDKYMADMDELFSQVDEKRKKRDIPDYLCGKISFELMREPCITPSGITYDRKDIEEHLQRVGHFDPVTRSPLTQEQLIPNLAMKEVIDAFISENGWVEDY
UniProt Q9GZX7: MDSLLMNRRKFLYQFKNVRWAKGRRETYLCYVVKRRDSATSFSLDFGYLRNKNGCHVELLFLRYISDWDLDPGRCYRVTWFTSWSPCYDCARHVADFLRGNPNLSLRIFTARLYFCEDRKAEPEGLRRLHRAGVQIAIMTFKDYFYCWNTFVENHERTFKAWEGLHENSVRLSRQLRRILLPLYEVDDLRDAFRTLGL

What was measured:
[1] = biological target: Myc-human CHIP (human) (UniProt Q9UNE7); test: anti-GFP co-immunoprecipitation from HeLa; only apparent when the proteasome was inhibited (MG132)
[2] = biological target: Myc-human CHIP (human) (UniProt Q9UNE7); test: anti-GFP co-immunoprecipitation from HeLa cells stably expressing AID-GFP and transfected with myc-CHIP, western blot anti-myc

binding [1]: binds
binding [2]: binds
Substance: human AID-GFP (from UniProt Q9GZX7 1-198) (enzyme)
